Assay results published in EP0996436B1, “PHARMACEUTICAL FORMULATIONS CONTAINING POORLY SOLUBLE DRUG SUBSTANCES” (Sanofi-Aventis, priority 1997, dated 1998).

Conditions: 0.01 M phosphate buffer pH=6, 1000 ml, 50 RPM, 50 mg active, 37°C, 3 capsules/formulation

SMILES: COc1ccc2cc([C@H](C)C(=O)O)ccc2c1 [Naproxyn, (S)-6-methoxy-α-methyl-2-naphthaleneacetic acid]
- % Dissolved at 30 minutes: 57.1 +/- 18.5%
